Source: patent US6699969
Results are given in words; binding and its absence hold for the method and conditions named. Binding seen in cells or lysates may run through a third protein. Some binding calls cover weakened binding; strength is not graded here. Where a sequence is shown, tags or fusion partners need not be part of it.

Chains of the proteins cited; added tags and fusions are not shown. Lines headed by an entry give the natural chain unless they say otherwise; changes in a name come on top.
UniProt O61577: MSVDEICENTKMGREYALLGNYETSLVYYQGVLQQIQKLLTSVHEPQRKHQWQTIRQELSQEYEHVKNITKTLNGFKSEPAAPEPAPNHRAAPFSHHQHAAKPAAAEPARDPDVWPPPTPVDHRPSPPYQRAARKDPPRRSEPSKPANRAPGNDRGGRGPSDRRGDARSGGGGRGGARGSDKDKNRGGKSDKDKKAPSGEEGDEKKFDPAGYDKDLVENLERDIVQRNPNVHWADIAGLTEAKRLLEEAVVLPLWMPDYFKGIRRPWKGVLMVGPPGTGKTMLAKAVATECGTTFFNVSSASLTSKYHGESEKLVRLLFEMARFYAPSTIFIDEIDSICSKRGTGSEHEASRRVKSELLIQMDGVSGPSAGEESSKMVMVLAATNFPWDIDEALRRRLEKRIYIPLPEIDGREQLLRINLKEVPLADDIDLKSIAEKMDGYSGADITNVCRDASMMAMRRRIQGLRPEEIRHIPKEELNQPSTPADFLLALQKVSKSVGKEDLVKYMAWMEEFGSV

Tests used:
[1] = biological target: in vitro translated S. purpuratus p60 katanin with 37 amino acid N-terminal S-Tag (Strongylocentrotus purpuratus) (UniProt O61577); test: in vitro co-translation, co-immunoprecipitation with p60-specific antibody, chemiluminescence blot
[2] = biological target: in vitro translated S. purpuratus p60 katanin with 37 amino acid N-terminal S-Tag (Strongylocentrotus purpuratus) (UniProt O61577); test: in vitro co-translation, co-immunoprecipitation with anti-p60 antibody, S-protein HRP blot

B1: p80 delta 1-302, truncated S. purpuratus p80 katanin lacking the entire WD40 domain, with N-terminal S-Tag (protein, not shown: small tags and cut ends)
chain: TTGIAQEPQSQPSKTPSGGAEEVPSKPLTASGRKNFVRERPHTTSSKQRQPDVKSEPERQSPTQDEGVKDDDATDIKDPDSYAKIFSPKTRVDHSPERNAQPFPAPLDVPGAQEPEPFKHPPKPAAAAAVAPVSRAPAPSASDWQPAQANPAPNRVPAATKPVPAQEVAPSRKPDPISTIIPSDRNKPANLDMDAFLPPAHAQQAPRVNAPASRKQSDSERIEGLRKGHDSMCQVLSSRHRNLDVVRAIWTAGDAKTSVESVVNMKDQAILVDILNIMLLKKSLWNLDMCVVVLPRLKELLSSKYENYVHTSCACLKLILKNFTSLFNQNIKCPPSGIDITREERYNKCSKCYSYLIATRGYVEEKQHVSGKLGSSFRELHLLLDQLE
Which binding [1] does the source give for B1 here?
Its binding is “binds”.

And the binding [2]?
Its binding is “binds”.
